About 4,500 (1.3%) of roughly 340,000 compounds were called active. The shares of active, inactive and inconclusive entries below differ from those in the screen. The call rests on the fitted dose curve; in most records, active means well fitted inhibition curve with a large enough effect; inconclusive means small, poorly fitted or top-dose-only effect, or another doubt; inactive means no such curve, though single readings can be large or run the other way. Where the call is inconclusive, the potency comes from a doubtful curve fit.
target: DNA polymerase beta (Homo sapiens) (UniProt P06746); assay: qHTS Assay for Inhibitors of DNA Polymerase Beta; details: Pol beta primer extension/strand displacement, fluorescence kinetic; activity change, negative = inhibition: at 114 µM (top of the series)
Summary of the method: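 Curves were derived by four-parameter Hill fits of normalized qHTS data. The kinetic fluorescent primer-extension read was taken at 0 and 10 min after 50 nM substrate, following a 15 min room-temperature preincubation of 10 nM enzyme with compounds.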
On the % scale 0 is the no-effect control and ±100 the full control effect; potency means the concentration at half of the fitted maximal effect.

Activity change, negative = inhibition, inactive:
O=C(O)c1ccc2c(c1)C(=O)N(Cc1ccccc1)C2=O -0.267%
CC(=O)[C@@H]1[C@@H]2C(=O)N(Cc3ccccc3)C(=O)[C@@H]2C2c3ccccc3C=CN21 (some centres undefined) 22.6%
COc1cc(/C=C2\C(=N)N3N=C(C)SC3=NC2=O)cc(Cl)c1OCCOc1ccc(NC(C)=O)cc1 2.92%
CCCNC(=O)Cn1c(=O)cc(C)c2c(C)nn(-c3cccc(F)c3)c21 -0.726%
CC1=C(C(=O)Nc2cccc(C(F)(F)F)c2)C(c2ccccn2)n2ncnc2N1 (centres undefined) 5.19%
Cc1nc(SCC(=O)c2ccc(F)cc2)n[nH]1 32.7%
Cc1ccc(S(=O)(=O)Nc2cc3c(C(=O)OCc4ccccc4)c(C)oc3c3ccccc23)cc1 11.8%
CC(c1ccc(F)cc1)n1c(-c2ccc3ccccc3n2)n[nH]c1=S (centres undefined) -1.03%
COc1ccc(OC)c(CC(NC(C)=O)C(=O)NC2CCN(S(=O)(=O)c3ccc(NC(C)=O)cc3)CC2)c1 (centres undefined) 27%
CCOC(=O)c1sc(Nc2ccccc2Cl)nc1C 8.57%
COC(=O)CCc1ccc(O)cc1 25.8%
O=C(CSc1nnc(CNC(=O)c2ccccc2F)o1)NC1CCCC1 9.42%
COc1cc(C(c2c(C)[nH][nH]c2=O)c2c(C)[nH][nH]c2=O)ccc1OC(=O)c1ccccc1F 2.05%
CCc1cccc(NC(=O)c2c(C)oc3ncnc(N4CCCCC4)c23)c1 -27.3%
COc1cc(/C=N/NC(=O)c2ccccn2)ccc1OC(=O)c1cccs1 -1.18%
COc1ccc(C(=O)COc2ccccc2C(=O)Nc2ccccc2)cc1 -25.8%
CCN1CCN(Cc2ccc(NC(=O)c3cc(NC(=O)C(=O)c4c[nH]c5ccccc45)cc(OC)c3)cc2C(F)(F)F)CC1 4.74%

Activity change, negative = inhibition, inconclusive:
C/C(=N\NC(=O)c1c(Cl)cnn1C)c1ccc(NC(=O)c2ccc(Br)o2)cc1 -43.4% [inhibitor]

Potency, active:
Cc1ccc(C(=O)O)cc1-n1c(C)cc(C=O)c1C 17.8 µM
CCCCc1ccc(-c2ccc(C)cc2O)nc1 28.2 µM
O=C(NCc1ccco1)/C(=C\c1ccco1)NC(=O)c1cccs1 22.4 µM
CCN(CC(=O)NC1CCS(=O)(=O)C1)S(=O)(=O)c1ccc(F)cc1 (centres undefined) 15.8 µM
O=C(O)c1ccc(-n2[nH]c3c(c2=O)CCCC3)cc1 28.2 µM
CC(/C=N/NC(=O)c1ccc2nc(C)[nH]c2c1)=C\c1ccccc1 28.2 µM
CSc1ccc(NC(=O)Nc2ccc(C(=O)NCC(=O)O)cc2)cc1 28.2 µM
Cc1cc(C)c(Nc2cc(S(=O)(=O)O)c(N)c3c2C(=O)c2ccccc2C3=O)c(C)c1 20 µM
COc1ccccc1CCNC(=O)CSc1ccc(-c2ccco2)nn1 15.8 µM
O=C(Nc1ccc2c(c1)CCC2)C1COc2ccccc2O1 (centres undefined) 17.8 µM

Potency, inconclusive:
Cc1ccc(NC(=O)Cn2c(=O)nc(-c3ccccc3F)c3cc(Cl)ccc32)c(Br)c1 22.4 µM [inhibitor, full curve, poor fit]
COc1ccccc1NC(=O)NNC(=O)c1cc2ccccc2cc1O 25.1 µM [inhibitor, full curve]
NNc1nc2c(-c3ccc(F)cc3)nnn2c2ccccc12 39.8 µM [inhibitor, single point]
Cc1ccc(-c2nc(NCCN(C)C)c3ccccc3n2)cc1 79.4 µM [inhibitor, single point]
Cc1noc(/C=C/N(C)C)c1S(=O)(=O)N1CCC(C(=O)O)CC1 79.4 µM [inhibitor, single point]
CCSc1nnc(NC(=O)[C@@H](NC(=O)c2ccccc2)C(C)C)s1 89.1 µM [inhibitor, single point]
CCn1cc(C(=O)O)c(=O)c2cc(F)c(N3CCN(S(=O)(=O)c4ccc(NC(=O)OC)cc4)CC3)cc21 50.1 µM [inhibitor, single point]
Cc1nc2c(C(=O)NCc3ccc4c(c3)OCO4)c[nH]n2c(=O)c1Cc1ccccc1F 89.1 µM [inhibitor, single point]
CCOc1ccc(Nc2nc(Nc3ccc(O)cc3)nc(C)c2[N+](=O)[O-])cc1 20 µM [inhibitor, partial curve, poor fit]
COc1cnc(-c2ccccn2)nc1Oc1ccc(Cl)cc1 79.4 µM [inhibitor, single point]
Nc1nonc1C(=O)NCCNCc1cc(Br)ccc1OCc1ccccc1F 89.1 µM [inhibitor, single point]
CCN(C(=O)COC(=O)c1cccc(NS(=O)(=O)c2ccc(F)c(F)c2)c1)C1CCS(=O)(=O)C1 (centres undefined) 100 µM [inhibitor, single point]
CN(CC(=O)Nc1ccc(SC(F)F)cc1)C1CCCCC1 89.1 µM [inhibitor, single point]
COc1ccc(/C(N)=N/OC(=O)CC2CCCCC2)cc1 0.794 µM [inhibitor, full curve, poor fit]
COc1cc2c(cc1OC)CN(Cc1nc3ccsc3c(=O)[nH]1)CC2 4.47 µM [inhibitor, full curve]
Nc1c(Cl)cc2c(c1Oc1ccccc1)C(=O)c1ccccc1C2=O 0.178 µM [inhibitor, full curve, poor fit]
CC#CCN1c2ccccc2[C@]23C[C@@H](C(=O)OC)N(C(=O)OCC)C2=NC(C(=O)OC)=C(C(=O)OC)[C@H]13 79.4 µM [inhibitor, single point]
O=C(NCc1cccs1)C(=O)NCC1OCCCN1S(=O)(=O)c1ccccc1 (centres undefined) 0.126 µM [inhibitor, partial curve, poor fit]
O=C(COc1ccc(F)cc1)Nc1cccc(OCc2cc(=O)n3ccccc3n2)c1 100 µM [inhibitor, single point]
COC(=O)c1ccc2oc(=O)c(S(=O)(=O)c3ccc(C)cc3)cc2c1 63.1 µM [inhibitor, single point]
CC(=O)Nc1ccc(NC(=O)CSc2nnc3c4cc(Br)ccc4n(C)c3n2)cc1 89.1 µM [inhibitor, single point]
CCCNS(=O)(=O)c1ccc(CCC(=O)N2CCN(c3ccc(OC)cc3)CC2)cc1 89.1 µM [inhibitor, single point]
Cc1ccccc1CNC(=O)C(=O)NCC1OCCCN1S(=O)(=O)c1cccs1 (centres undefined) 100 µM [inhibitor, single point]
Cc1[nH]c2ccccc2c1/C=N/NC(=O)c1cccs1 22.4 µM [inhibitor, partial curve]
O=C(Nc1ccnn1C1CCN(Cc2ccc(OC(F)F)cc2)CC1)C1CCCC1 0.708 µM [inhibitor, full curve, poor fit]
O=C(NCC1CCCO1)c1ccc(NC(=O)c2cccc(Br)c2)cc1 (centres undefined) 0.708 µM [inhibitor, full curve, poor fit]
O=C(COC(=O)c1ccc(S(=O)(=O)N2CCCC2)cc1)NCc1ccco1 22.4 µM [inhibitor, partial curve]
O=C1NN(c2ccccc2)C(=O)/C1=C/c1cccs1 50.1 µM [inhibitor, partial curve, poor fit]
O=C1NC2(CCCC2)N=C1c1ccc(F)cc1 0.224 µM [inhibitor, partial curve, poor fit]
Cc1cc(Cl)ccc1NC(=O)CSc1nnc(Cc2cccs2)n1Cc1ccco1 56.2 µM [inhibitor, partial curve]
Cc1cc(NC(=O)CSc2ccc3nnc(CCNS(=O)(=O)c4ccccc4)n3n2)no1 39.8 µM [inhibitor, single point]
CC(=O)Nc1ccc(NC(=O)c2ccc3c(c2)C(=O)N(c2ccccc2C)C3=O)cc1 100 µM [inhibitor, single point]
Cc1ccc(C(=O)NNC(=O)c2cc3ccccc3cc2O)cc1 39.8 µM [inhibitor, partial curve]
Cc1[nH]ccc(=O)c1Cc1c(Cl)cccc1Cl 0.158 µM [inhibitor, full curve, poor fit]
CC(C)S(=O)(=O)c1oc(-c2ccc(F)cc2)nc1S(=O)(=O)c1ccc(F)cc1 56.2 µM [inhibitor, partial curve]
COc1cccc(C(=O)NCC(=O)OCC(=O)Nc2ncc(Cl)cc2Cl)c1 20 µM [inhibitor, full curve]
CCc1ccc(N2C(=O)c3ccc4c5c(ccc(c35)C2=O)CC4)cc1 35.5 µM [inhibitor, full curve]
CCOc1ccc(CCNC(=O)CCc2cn(Cc3ccc(C)cc3)c3ccccc23)cc1 0.251 µM [inhibitor, partial curve, poor fit]
Cc1cccc(CC(=O)N2CCCC2)c1 31.6 µM [inhibitor, full curve, poor fit]
O=C(COc1ccc(S(=O)(=O)N2CCCC2)cc1)NCCC1=CCCCC1 25.1 µM [inhibitor, partial curve]
CCC(=O)Nc1ccccc1-c1nc2ccccc2n(C(CC)C(=O)Nc2cccc(C(C)=O)c2)c1=O (centres undefined) 35.5 µM [inhibitor, full curve]

Already shown: an excerpt of the list.
Potency, inconclusive:
CCOc1ccc(CCNC(=O)CCc2cn(Cc3ccc(C)cc3)c3ccccc23)cc1 0.251 µM [inhibitor, partial curve, poor fit]
Cc1cccc(CC(=O)N2CCCC2)c1 31.6 µM [inhibitor, full curve, poor fit]
O=C(COc1ccc(S(=O)(=O)N2CCCC2)cc1)NCCC1=CCCCC1 25.1 µM [inhibitor, partial curve]

Source: PubChem BioAssay AID485314 (National Center for Advancing Translational Sciences (NCATS), 2010)
